Results on one compound are retold here after ChEMBL document CHEMBL1154721, “Synthesis, antitumor activity and molecular docking study of novel sulfonamide-Schiff's bases, thiazolidinones, benzothiazinones and their C-nucleoside derivatives” (Eur J Med Chem, 2010).

One experiment concerns MCF7. The experiment is described as follows: Cytotoxicity against human MCF7 cells after 48 hrs by SRB assay. It is filed as functional, cell-based. The procedure, abridged:
(§1)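 Cells were seeded and left 24 h to attach before dosing, then exposed to test compound at […], in triplicate wells per dose. Incubation was 48 h at 37 °C under 5% CO2. Cells were then fixed, washed and stained with sulforhodamine B, excess dye was removed with acetic acid, bound dye was recovered in Tris-EDTA buffer, and colour intensity was read on an ELISA reader.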
(In general: In SRB staining, fixed cells bind dye roughly in proportion to their protein.)

The next experiment concerns HeLa. Put plainly: Cytotoxicity against human HeLa cells after 48 hrs by SRB assay. It is filed as functional, cell-based. The method in brief:
as §1

In brackets after ≈: the same amount, converted by molar mass.

A word on the IC50: it is the concentration needed to halve the response being measured. Low values mean higher potency, high ones lower potency. Consider `COc1cccc2c1C(=O)c1c(O)c3c(c(O)c1C2=O)C[C@@](O)(C(=O)CO)C[C@@H]3O[C@H]1C[C@H](N)[C@H](O)[C@H](C)O1` [DOXORUBICIN], for which the values for the IC50 in the experiment on MCF7 and in the experiment with HeLa were 6.71 µg/mL (≈ 12.3 µM) and 8.72 µg/mL (≈ 16 µM), respectively.
